Laboratory results: PubChem BioAssay AID1345085 (National Center for Advancing Translational Sciences (NCATS), 2018)
The shares of active, inactive and inconclusive entries below differ from those in the screen. A potency beside an inconclusive call is a rough fit, not a confirmed value. Activity calls are given as the source filed them. Calls come from the whole dose curve; as a rule, active = well fitted cell-killing curve with a large enough effect; inconclusive = small, poorly fitted or top-dose-only effect, or effect the other way; inactive = no such curve, though single readings can be large or run the other way.

What follows are compounds tested on SKOV3 (assay: Confirmatory qHTS for gynecologic anti-cancer compounds from libraries of approved drugs and bioactive compounds). Conditions: gynecologic cancer cell panel viability, ATPlite luminescence, 48 h; series mostly up to 57.6 µM.
Outline: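 IC50 values derive from an ATPlite ATP-content luminescence assay following 48 h treatment at 37 C. Each compound ran as an 11-concentration, threefold series (57.5 uM to 0.977 nM); HEK 293T served as control line for selectivity index.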
Note: nearly all actives have a fitted effect of over 55% in size.
Potency is the fitted concentration of half-maximal effect.

Structure (SMILES)	Potency
Cn1cnc2c(F)c(Nc3ccc(Br)cc3Cl)c(C(=O)NOCCO)cc21	inconclusive: 9.7 nM [cytotoxic, full curve]
CCC1=CC2CN(C1)Cc1c([nH]c3ccccc13)[C@@](C(=O)OC)(c1cc3c(cc1OC)N(C)[C@H]1[C@@](O)(C(=O)OC)[C@H](OC(C)=O)[C@]4(CC)C=CCN5CC[C@]31[C@@H]54)C2 (some centres undefined)	inconclusive: 94.3 nM [cytotoxic, full curve]
CC(C)Oc1ccc(C(=O)NC(CNC(=O)CN(C)C)Cc2ccc(-c3cn4cccc(C(C)O)c4n3)cc2)cc1Cl (centres undefined)	inconclusive: 273 nM [cytotoxic, full curve]
CC[C@H](Nc1ncnc2nc[nH]c12)c1nc2cccc(F)c2c(=O)n1-c1ccccc1	inconclusive: 32.6 nM [rising, partial curve]
Nc1ncn([C@@H]2O[C@H](CO)[C@@H](O)[C@H]2O)c(=O)n1	inconclusive: 3850 nM [rising, full curve, poor fit]
Cc1cnc(Nc2cccc(CN3CCOCC3)c2)nc1Nc1cccc(S(=O)(=O)NC(C)(C)C)c1	active: 10900 nM
CCN1CCN(Cc2ccc(Nc3ncc(F)c(-c4cc(F)c5nc(C)n(C(C)C)c5c4)n3)nc2)CC1	inactive
Cc1nc(NC(=O)N2CCCC2C(N)=O)sc1-c1ccnc(C(C)(C)C(F)(F)F)c1 (centres undefined)	active: 685 nM
Cc1cc(Nc2cc(N3CCN(C)CC3)nc(Sc3ccc(NC(=O)C4CC4)cc3)n2)n[nH]1	inconclusive: 27300 nM [cytotoxic, single point]

3 structures from above, sorted by number of heavy atoms, largest number first.
Structure (SMILES)	Potency
Cc1cnc(Nc2cccc(CN3CCOCC3)c2)nc1Nc1cccc(S(=O)(=O)NC(C)(C)C)c1	active: 10900 nM
Cc1nc(NC(=O)N2CCCC2C(N)=O)sc1-c1ccnc(C(C)(C)C(F)(F)F)c1 (centres undefined)	active: 685 nM
Nc1ncn([C@@H]2O[C@H](CO)[C@@H](O)[C@H]2O)c(=O)n1	inconclusive: 3850 nM [rising, full curve, poor fit]
